Data reported in PubChem BioAssay AID2662 (National Center for Advancing Translational Sciences (NCATS), 2010).
The whole screen tested about 290,000 compounds, of which about 110 (0.038%) were called active. Inconclusive results, whose numbers are uncertain, are shown with a selection of clear calls. Calls come from the whole dose curve; as a rule, active = well fitted inhibition curve with a large enough effect in the polarisation, with a control signal flat (not every such curve was filed as active); inconclusive = small, poorly fitted or top-dose-only effect, or effect the other way, or a change in a side signal; inactive = no such curve, though single readings can be large or run the other way; the % refers to the polarisation. Where the call is inconclusive, the potency comes from a doubtful curve fit. A note “side channel” means that the fit belongs to a control or component signal, not to the main read-out.

Amino acid sequences for entries named in this document (tags omitted).
UniProt Q03164, whole entry, looked up: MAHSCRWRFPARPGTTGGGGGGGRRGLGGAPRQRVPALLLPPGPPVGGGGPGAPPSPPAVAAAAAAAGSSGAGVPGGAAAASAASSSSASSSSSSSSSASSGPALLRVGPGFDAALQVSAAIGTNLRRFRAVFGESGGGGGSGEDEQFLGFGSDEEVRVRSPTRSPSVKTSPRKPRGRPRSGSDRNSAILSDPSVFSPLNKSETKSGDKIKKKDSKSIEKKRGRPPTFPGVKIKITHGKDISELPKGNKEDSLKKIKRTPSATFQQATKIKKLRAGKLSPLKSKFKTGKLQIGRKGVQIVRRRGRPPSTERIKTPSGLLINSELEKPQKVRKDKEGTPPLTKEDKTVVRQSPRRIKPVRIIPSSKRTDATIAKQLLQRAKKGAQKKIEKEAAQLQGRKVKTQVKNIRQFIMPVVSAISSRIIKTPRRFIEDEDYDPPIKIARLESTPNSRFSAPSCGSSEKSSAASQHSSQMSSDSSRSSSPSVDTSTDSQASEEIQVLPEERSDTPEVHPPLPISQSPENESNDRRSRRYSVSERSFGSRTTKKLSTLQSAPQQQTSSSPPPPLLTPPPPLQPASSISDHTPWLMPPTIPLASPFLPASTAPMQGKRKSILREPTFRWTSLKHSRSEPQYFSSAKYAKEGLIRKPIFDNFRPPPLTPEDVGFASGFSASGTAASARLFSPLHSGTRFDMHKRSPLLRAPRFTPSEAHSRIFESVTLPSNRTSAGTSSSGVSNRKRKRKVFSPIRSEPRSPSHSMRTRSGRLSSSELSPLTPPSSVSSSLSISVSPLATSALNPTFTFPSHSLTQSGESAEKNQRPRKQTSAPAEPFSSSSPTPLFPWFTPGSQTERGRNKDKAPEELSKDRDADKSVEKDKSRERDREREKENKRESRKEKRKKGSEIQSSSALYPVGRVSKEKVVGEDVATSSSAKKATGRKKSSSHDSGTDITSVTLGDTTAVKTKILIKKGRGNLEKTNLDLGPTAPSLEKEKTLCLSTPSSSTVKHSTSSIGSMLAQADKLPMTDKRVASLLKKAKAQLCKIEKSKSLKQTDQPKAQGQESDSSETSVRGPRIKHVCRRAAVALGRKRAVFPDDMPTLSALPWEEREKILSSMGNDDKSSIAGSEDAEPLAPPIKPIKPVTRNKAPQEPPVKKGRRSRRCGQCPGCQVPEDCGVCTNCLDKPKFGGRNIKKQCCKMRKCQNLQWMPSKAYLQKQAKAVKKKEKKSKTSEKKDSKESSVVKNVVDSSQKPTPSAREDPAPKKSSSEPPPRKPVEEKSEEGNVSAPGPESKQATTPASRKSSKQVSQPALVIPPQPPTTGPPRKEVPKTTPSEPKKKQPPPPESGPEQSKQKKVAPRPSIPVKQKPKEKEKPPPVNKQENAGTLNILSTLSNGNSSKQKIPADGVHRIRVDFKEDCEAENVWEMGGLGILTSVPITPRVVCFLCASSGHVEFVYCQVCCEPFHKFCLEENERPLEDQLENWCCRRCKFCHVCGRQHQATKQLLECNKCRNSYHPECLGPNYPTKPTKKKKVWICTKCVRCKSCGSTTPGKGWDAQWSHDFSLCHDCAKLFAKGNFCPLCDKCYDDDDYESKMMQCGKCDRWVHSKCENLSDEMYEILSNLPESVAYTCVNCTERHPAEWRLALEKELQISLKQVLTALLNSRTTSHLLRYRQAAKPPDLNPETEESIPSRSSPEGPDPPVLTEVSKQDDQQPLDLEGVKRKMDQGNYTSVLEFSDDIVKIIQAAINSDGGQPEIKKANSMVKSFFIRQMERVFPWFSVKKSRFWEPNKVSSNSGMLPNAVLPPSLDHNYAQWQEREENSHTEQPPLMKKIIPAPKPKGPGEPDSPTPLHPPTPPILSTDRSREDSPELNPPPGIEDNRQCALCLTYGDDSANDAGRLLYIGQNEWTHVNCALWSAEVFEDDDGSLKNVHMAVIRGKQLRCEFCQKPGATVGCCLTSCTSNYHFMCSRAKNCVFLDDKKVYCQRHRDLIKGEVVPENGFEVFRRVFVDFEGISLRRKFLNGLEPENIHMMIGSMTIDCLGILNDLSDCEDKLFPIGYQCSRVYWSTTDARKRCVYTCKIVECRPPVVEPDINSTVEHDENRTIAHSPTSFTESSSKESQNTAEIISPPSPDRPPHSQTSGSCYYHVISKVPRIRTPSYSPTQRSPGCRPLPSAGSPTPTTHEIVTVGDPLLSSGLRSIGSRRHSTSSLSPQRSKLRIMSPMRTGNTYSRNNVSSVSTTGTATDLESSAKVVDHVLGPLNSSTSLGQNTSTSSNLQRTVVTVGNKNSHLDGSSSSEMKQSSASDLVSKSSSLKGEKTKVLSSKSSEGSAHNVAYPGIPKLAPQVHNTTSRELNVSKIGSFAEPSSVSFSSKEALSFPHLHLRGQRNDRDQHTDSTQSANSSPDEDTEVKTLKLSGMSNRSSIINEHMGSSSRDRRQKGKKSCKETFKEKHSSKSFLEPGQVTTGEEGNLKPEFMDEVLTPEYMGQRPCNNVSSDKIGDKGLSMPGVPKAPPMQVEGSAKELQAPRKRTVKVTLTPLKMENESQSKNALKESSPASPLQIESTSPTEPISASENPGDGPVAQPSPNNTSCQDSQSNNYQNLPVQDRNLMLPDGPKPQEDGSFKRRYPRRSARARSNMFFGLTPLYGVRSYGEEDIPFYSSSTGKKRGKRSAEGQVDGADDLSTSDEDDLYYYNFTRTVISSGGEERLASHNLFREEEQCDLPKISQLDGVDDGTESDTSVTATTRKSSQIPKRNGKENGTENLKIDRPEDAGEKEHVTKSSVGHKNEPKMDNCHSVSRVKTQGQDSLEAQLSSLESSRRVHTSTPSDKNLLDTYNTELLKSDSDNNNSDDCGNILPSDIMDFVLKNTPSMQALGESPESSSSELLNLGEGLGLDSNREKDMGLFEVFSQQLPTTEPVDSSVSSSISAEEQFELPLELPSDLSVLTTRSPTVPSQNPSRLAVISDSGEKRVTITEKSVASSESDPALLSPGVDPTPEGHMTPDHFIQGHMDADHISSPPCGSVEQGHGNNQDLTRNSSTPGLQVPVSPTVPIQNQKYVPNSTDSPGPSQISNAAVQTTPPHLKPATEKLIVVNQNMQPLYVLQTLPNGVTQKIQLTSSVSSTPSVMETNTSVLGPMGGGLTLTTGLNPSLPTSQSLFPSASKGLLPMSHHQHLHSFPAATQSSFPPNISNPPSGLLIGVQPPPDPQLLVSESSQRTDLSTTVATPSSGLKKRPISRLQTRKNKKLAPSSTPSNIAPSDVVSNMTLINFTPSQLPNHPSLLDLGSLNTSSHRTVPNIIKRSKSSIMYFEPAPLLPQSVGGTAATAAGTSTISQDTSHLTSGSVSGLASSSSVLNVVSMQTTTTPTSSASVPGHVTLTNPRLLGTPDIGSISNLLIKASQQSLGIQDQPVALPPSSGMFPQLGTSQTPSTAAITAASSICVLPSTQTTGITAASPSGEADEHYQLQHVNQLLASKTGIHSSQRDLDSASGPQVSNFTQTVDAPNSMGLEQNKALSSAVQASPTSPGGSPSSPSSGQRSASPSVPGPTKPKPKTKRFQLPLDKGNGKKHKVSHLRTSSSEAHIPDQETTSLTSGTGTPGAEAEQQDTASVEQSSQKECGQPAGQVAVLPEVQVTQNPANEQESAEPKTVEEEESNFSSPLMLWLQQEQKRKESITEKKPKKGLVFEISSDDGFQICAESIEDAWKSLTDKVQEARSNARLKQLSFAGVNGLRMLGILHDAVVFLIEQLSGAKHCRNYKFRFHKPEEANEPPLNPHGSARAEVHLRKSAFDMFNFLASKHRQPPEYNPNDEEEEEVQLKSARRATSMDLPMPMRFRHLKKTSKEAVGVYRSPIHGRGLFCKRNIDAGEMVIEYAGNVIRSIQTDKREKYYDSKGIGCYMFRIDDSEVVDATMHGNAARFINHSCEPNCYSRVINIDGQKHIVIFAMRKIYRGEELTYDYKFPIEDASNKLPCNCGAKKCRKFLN

biological target: Histone-lysine N-methyltransferase 2A (Homo sapiens) (UniProt Q03164); assay: qHTS Fluorescence Polarization Assay for Inhibitors of MLL CXXC domain - DNA interaction; settings: MLL-CXXC / FITC-HOXA9 DNA fluorescence polarization; series mostly up to 115 µM
How it was run: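 Fluorescence polarization: 7 uM MLL-CXXC (stock) preincubated 5 min with compounds, then 50 nM fluorescein-HOX-A9 DNA (stock) added; 30 min ambient. Buffer 50 mM Tris-HCl pH 7.5, 50 mM NaCl, 1 mM DTT, 0.05% BSA.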
Potency is the fitted concentration of half-maximal effect.

Row | SMILES | Potency
1 | COc1ccc(C)cc1-n1nnnc1SCC(=O)NC(=O)NCc1ccco1 | inactive
2 | CCOC(=O)c1cc2n(n1)C(C(F)(F)F)CC(C)N2 (stereo not drawn) | inconclusive: 14.1 µM [inhibitor, single point]
3 | CC1=NN(c2ccc(Br)cc2)C(=O)/C1=C/c1ccc(-c2ccccc2C(=O)O)o1 | inconclusive: 12.6 µM [inhibitor, partial curve]
4 | O=C(O)c1cccc(OCCN2CCCC2=O)c1 | inactive
5 | CCOc1cc(/C=C2\N=C(SC(C)C(N)=O)N(c3ccc(OC(F)F)cc3)C2=O)ccc1O (stereo not drawn) | inconclusive: 31.6 µM [fluorescent, side channel, partial curve]
6 | CCN(CC)c1ccc(/C=c2/sc3nnc(-c4ccccc4C)n3c2=O)cc1 | inconclusive: 20 µM [fluorescent, side channel, partial curve]
7 | O=C(Nc1cccnc1)c1cc2c(ccc3ccccc32)o1 | inactive
8 | CCOC(=O)c1nn(-c2ccc3c(c2)OCCO3)cc1O | inactive
9 | CCC(C)[C@H](NC(=O)N1CC(=O)Nc2ccccc21)C(=O)N[C@H](Cc1c[nH]c2ccccc12)C(=O)O (stereo partly drawn) | inconclusive: 15.8 µM [fluorescent, side channel, single point]
10 | CC1=C(C(N)=O)S(=O)(=O)c2ccccc21 | inconclusive: 5.01 µM [fluorescent, side channel, partial curve]
11 | COc1ccc(CNc2ncc(-c3ccc(F)cc3)n2C)c2ccccc12 | inconclusive: 79.4 µM [quencher, side channel, partial curve]
12 | CNC(=O)c1cnn(-c2nc(-c3ccc(OC)cc3)cs2)c1C(F)(F)F | inactive
13 | CCOc1ccccc1N1CCN(c2nc3ccccc3nc2C(C#N)C(=O)OC)CC1 (stereo not drawn) | inactive
14 | ON=C1c2cc(OCCN3CCCCC3)ccc2-c2ccc(OCCN3CCCCC3)cc21 | inconclusive: 35.5 µM [quencher, side channel, partial curve]
15 | Cc1cc(C(=O)CSc2nc3ccccc3o2)c(C)n1CC1CCCO1 (stereo not drawn) | inconclusive: 1 µM [quencher, side channel, full curve, poor fit]
16 | COc1cc2c(cc1OC)C(C(=O)Nc1ccc(F)c(Cl)c1)CC(=O)N2 (stereo not drawn) | inactive
17 | O=C(Nc1cccc(Cl)c1N1CCCCC1)c1ccc(N2CCOCC2)c([N+](=O)[O-])c1 | inconclusive: 63.1 µM [quencher, side channel, single point]
18 | CN(C)c1ccc2nc3c(=O)[nH]c(=O)nc-3n(CC(O)C(O)C(O)CO)c2c1 (stereo not drawn) | inconclusive: 44.7 µM [fluorescent, side channel, partial curve]
19 | COCCCNC(=O)CSc1nc2ccccc2c(=O)n1CCCN1CCCCC1 | inconclusive: 8.91 µM [inhibitor, single point]
20 | CCCCC1CCC(C(=O)Nc2ccc(S(=O)(=O)Nc3nccs3)cc2)CC1 (stereo not drawn) | inconclusive: 31.6 µM [inhibitor, single point]
21 | O=C(NNC(=O)c1cc2ccccc2cc1O)Nc1ccc(F)cc1F | inconclusive: 11.2 µM [quencher, side channel, single point]

From compound 4 as far as 14, as listed above:
Row | SMILES | Potency
4 | O=C(O)c1cccc(OCCN2CCCC2=O)c1 | inactive
5 | CCOc1cc(/C=C2\N=C(SC(C)C(N)=O)N(c3ccc(OC(F)F)cc3)C2=O)ccc1O (stereo not drawn) | inconclusive: 31.6 µM [fluorescent, side channel, partial curve]
6 | CCN(CC)c1ccc(/C=c2/sc3nnc(-c4ccccc4C)n3c2=O)cc1 | inconclusive: 20 µM [fluorescent, side channel, partial curve]
7 | O=C(Nc1cccnc1)c1cc2c(ccc3ccccc32)o1 | inactive
8 | CCOC(=O)c1nn(-c2ccc3c(c2)OCCO3)cc1O | inactive
9 | CCC(C)[C@H](NC(=O)N1CC(=O)Nc2ccccc21)C(=O)N[C@H](Cc1c[nH]c2ccccc12)C(=O)O (stereo partly drawn) | inconclusive: 15.8 µM [fluorescent, side channel, single point]
10 | CC1=C(C(N)=O)S(=O)(=O)c2ccccc21 | inconclusive: 5.01 µM [fluorescent, side channel, partial curve]
11 | COc1ccc(CNc2ncc(-c3ccc(F)cc3)n2C)c2ccccc12 | inconclusive: 79.4 µM [quencher, side channel, partial curve]
12 | CNC(=O)c1cnn(-c2nc(-c3ccc(OC)cc3)cs2)c1C(F)(F)F | inactive
13 | CCOc1ccccc1N1CCN(c2nc3ccccc3nc2C(C#N)C(=O)OC)CC1 (stereo not drawn) | inactive
14 | ON=C1c2cc(OCCN3CCCCC3)ccc2-c2ccc(OCCN3CCCCC3)cc21 | inconclusive: 35.5 µM [quencher, side channel, partial curve]

Additional entries

Row | SMILES | Potency
22 | CCOC(=O)C1=C(C)Nc2ccccc2N=C1NC(=O)Cc1ccc(Cl)c(Cl)c1 | inconclusive: 31.6 µM [fluorescent, side channel, partial curve]
23 | CCCc1cc(-n2ccnc2)n2c(nc3ccccc32)c1C#N | inconclusive: 39.8 µM [fluorescent, side channel, partial curve]
24 | CCc1ccc(CN2CCC(C(=O)Nc3cccc(-c4nnc(C)s4)c3)CC2)o1 | inconclusive: 1.12 µM [fluorescent, side channel, full curve]
25 | Cc1ccc(NC(=O)c2cc(-c3ccc(F)cc3)on2)cc1C | inactive
26 | Oc1cc2c(cc1O)[C@@H](c1ccccc1)CNCC2 | inactive
27 | Cc1cc(C)nc(SCC(=O)Nc2ccc(S(=O)(=O)Nc3ncccn3)cc2)n1 | inactive
28 | CC1Cc2ccccc2N1CC(=O)NC(c1ccccc1)c1ccccc1 (stereo not drawn) | inconclusive: 70.8 µM [inhibitor, single point]
29 | Cn1c(C(=O)N[C@@H](Cc2ccccc2)C(=O)O)cc2cc(Cl)ccc21 | inconclusive: 31.6 µM [fluorescent, side channel, partial curve]
30 | CC(C)c1nnc(NC(=O)c2cc3cc(Br)ccc3oc2=O)s1 | inconclusive: 5.62 µM [inhibitor, partial curve]
31 | Cc1ccc(NC(=O)Cc2nnc(SCC(=O)c3ccc(Br)cc3)n2C)cc1Cl | inconclusive: 11.2 µM [fluorescent, side channel, single point]
32 | COC(=O)c1cc(C)sc1NC(=O)CC1Nc2ccccc2NC1=O (stereo not drawn) | inconclusive: 126 µM [fluorescent, side channel, partial curve]
33 | CC1CC(C)CN(CCCNS(=O)(=O)c2ccc3c(c2)oc(=O)n3C)C1 (stereo not drawn) | inconclusive: 2.82 µM [fluorescent, side channel, full curve]
34 | Cc1ccc(N/C=C/C(=O)c2sc(-c3ccccc3)nc2C)cc1 | inconclusive: 31.6 µM [fluorescent, side channel, single point]
35 | CN1CCN(CC(=O)Nc2ccc(OC(F)(F)F)cc2)CC1 | inconclusive: 8.91 µM [fluorescent, side channel, partial curve]
36 | N#Cc1ccc(C(=O)Nc2ccc3ccccc3c2)cc1 | inactive
37 | Cc1ccc(C(=O)OCC(=O)NC(C)C)cc1S(=O)(=O)N1CCOCC1 | inconclusive: 8.91 µM [fluorescent, side channel, partial curve]
38 | Oc1ccc2ccccc2c1C=Nc1ccccc1 | inconclusive: 44.7 µM [fluorescent, single point]
39 | Cc1ccccc1NS(=O)(=O)c1ccc(C(=O)N2CCN(c3ccccc3O)CC2)cc1 | inconclusive: 14.1 µM [fluorescent, side channel, single point]
40 | O=C(NNC(=S)NC(=O)c1ccc(Br)cc1)c1ccc([N+](=O)[O-])cc1 | inconclusive: 56.2 µM [inhibitor, single point]
41 | O=c1cc(CSc2ccc(Cl)cc2)nc(-c2ccccn2)[nH]1 | inconclusive: 4.47 µM [inhibitor, partial curve]
42 | COCCCC/C(=N\OCCN)c1ccc(C(F)(F)F)cc1 | inconclusive: 14.1 µM [fluorescent, side channel, single point]

Row | SMILES | Potency
43 | COc1ccc(-c2cc(OC(=O)c3ccc(F)cc3)c3c(C)oc(C)c3c(=O)c2)cc1 | inconclusive: 7.08 µM [fluorescent, side channel, full curve]
44 | COc1ccc(/C=N/NC(=O)C2C(C=C(Cl)Cl)C2(C)C)c(OC)c1 (stereo not drawn) | inconclusive: 14.1 µM [inhibitor, single point]
45 | O=C(CSc1nc2ccccc2s1)N1c2ccccc2Sc2ccc(C(F)(F)F)cc21 | inconclusive: 89.1 µM [fluorescent, side channel, single point]
46 | CC/C=C\C/C=C\C/C=C\C/C=C\C/C=C\CCCC(=O)O | inconclusive: 50.1 µM [inhibitor, partial curve]
47 | O=C(CCSc1nnc(-c2ccco2)o1)Nc1ccc(F)cc1 | inconclusive: 89.1 µM [fluorescent, side channel, single point]
48 | CNC(=S)Nc1cc(C(=O)N2CCCC2)ccc1N1CCCC1 | inconclusive: 14.1 µM [fluorescent, side channel, single point]
49 | COc1ccc(Cl)cc1Nc1nc2ccc(C)cc2n2cnnc12 | inconclusive: 44.7 µM [fluorescent, side channel, partial curve, poor fit]
50 | COc1ccc(/C=N/Nc2snc(SC)c2C#N)cc1OC | inactive
51 | Cc1cc(Br)c(NC(=O)c2ccccc2[N+](=O)[O-])cc1C | inactive
52 | COC(=O)COc1cccc(NC(=O)c2cccc(C)c2)c1 | inconclusive: 89.1 µM [quencher, side channel, single point]
53 | COCCn1c(-c2ccc(-c3ccccc3Cl)o2)nc2c1c(=O)[nH]c(=O)n2CC(C)C | inactive
54 | CC(=O)[C@]1(O)Cc2c(O)c3c(c(O)c2[C@@H](O[C@H]2C[C@H](N)[C@H](O)[C@H](C)O2)C1)C(=O)c1c(O)cccc1C3=O | inconclusive: 44.7 µM [fluorescent, side channel, partial curve]
55 | CCN(CC)S(=O)(=O)c1ccc(C(=O)NC2=C(C(=O)OC)SCC2)cc1 | inconclusive: 8.91 µM [inhibitor, single point]
56 | C=CCn1c(C)cc(C(=O)CN2C(=O)c3ccccc3C2=O)c1C | inconclusive: 39.8 µM [fluorescent, side channel, single point]
57 | CCCCCCc1cc2cc(S(=O)(=O)c3ccc(F)c(Cl)c3)c(=O)oc2cc1O | inactive
58 | O=C1c2ccccc2NC(c2ccc(Cl)cc2Cl)N1O (stereo not drawn) | inactive
59 | COc1ccc(NC(=O)CCl)cn1 | inconclusive: 35.5 µM [inhibitor, partial curve]
60 | CCCC(=O)Nc1c(-c2ccccc2OC)c(=O)c2ccccc2n1C | inactive
61 | Cc1ccc2oc(-c3cccc(NC(=O)C4CCCO4)c3)nc2c1 (stereo not drawn) | inactive
62 | O=C(Nc1cccc(C(=O)N2CCOCC2)c1)c1ccccc1Br | inconclusive: 14.1 µM [fluorescent, side channel, single point]
63 | NC(=O)c1ccccc1NC(=O)/C=C/c1ccccc1 | inconclusive: 8.91 µM [inhibitor, single point]
